From publication PMC7862700
The entries are a selection whose mix differs from that of the whole data set. At the low end of the ranking the order means little.

Sequences of proteins named here, by UniProt entry; tags and fusion partners are left off. A change or cut given only in a name is not applied to a line headed by its entry.
UniProt Q01892: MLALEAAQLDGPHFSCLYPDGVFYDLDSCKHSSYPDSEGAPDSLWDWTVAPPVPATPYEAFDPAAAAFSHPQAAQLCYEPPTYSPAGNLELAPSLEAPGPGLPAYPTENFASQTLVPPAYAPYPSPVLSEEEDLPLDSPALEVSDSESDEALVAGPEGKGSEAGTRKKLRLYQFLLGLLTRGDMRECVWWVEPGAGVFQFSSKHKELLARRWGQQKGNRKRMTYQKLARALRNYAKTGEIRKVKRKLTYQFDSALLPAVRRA
UniProt P41161: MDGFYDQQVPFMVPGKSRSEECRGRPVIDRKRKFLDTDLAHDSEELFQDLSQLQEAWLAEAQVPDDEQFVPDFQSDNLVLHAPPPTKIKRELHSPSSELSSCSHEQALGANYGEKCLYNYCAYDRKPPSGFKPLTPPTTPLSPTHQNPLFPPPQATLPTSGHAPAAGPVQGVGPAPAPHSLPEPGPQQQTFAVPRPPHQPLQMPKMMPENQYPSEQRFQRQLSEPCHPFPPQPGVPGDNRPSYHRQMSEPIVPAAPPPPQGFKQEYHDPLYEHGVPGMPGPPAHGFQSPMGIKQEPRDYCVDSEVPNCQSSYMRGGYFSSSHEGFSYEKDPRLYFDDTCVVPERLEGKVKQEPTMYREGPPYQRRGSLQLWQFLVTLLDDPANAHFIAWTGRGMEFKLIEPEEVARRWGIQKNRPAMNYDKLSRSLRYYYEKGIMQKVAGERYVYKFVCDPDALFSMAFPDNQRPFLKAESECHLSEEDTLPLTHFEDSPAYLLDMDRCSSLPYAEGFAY
UniProt Q99607: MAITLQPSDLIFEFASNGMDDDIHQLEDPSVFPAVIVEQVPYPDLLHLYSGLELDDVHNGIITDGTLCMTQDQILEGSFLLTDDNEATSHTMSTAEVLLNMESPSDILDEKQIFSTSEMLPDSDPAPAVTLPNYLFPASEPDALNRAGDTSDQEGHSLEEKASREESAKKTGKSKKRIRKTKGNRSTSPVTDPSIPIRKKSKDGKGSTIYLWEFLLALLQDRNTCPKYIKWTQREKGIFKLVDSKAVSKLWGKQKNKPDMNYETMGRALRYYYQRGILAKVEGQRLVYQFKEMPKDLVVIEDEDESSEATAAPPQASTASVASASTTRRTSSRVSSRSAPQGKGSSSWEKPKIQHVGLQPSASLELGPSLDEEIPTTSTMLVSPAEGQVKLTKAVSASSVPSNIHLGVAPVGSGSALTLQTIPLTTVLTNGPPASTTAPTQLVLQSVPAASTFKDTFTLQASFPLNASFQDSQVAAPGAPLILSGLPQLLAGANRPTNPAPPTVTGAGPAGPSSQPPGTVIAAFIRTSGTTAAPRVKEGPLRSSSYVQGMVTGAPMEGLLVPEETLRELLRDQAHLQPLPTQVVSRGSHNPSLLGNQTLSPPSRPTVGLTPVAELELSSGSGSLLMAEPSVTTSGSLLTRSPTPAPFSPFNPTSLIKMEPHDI

Columns and labels:
Assay in all cases: DAPPL (digital affinity profiling via proximity ligation, sequencing)
Conditions in all cases: 10 mM Tris-HCl pH 7.5, 50 mM NaCl, 1 mM DTT, 4% glycerol, room temperature, 30 min; GST-TFs on glutathione beads, 16-mer random dsDNA library, 0.1% …; high values mean tight binding; double strand, one strand shown; scale: fold enrichment (6-mer frequency, TF over GST control)
FLI1 = molecular target: T1, FLI1 (UniProt Q01543)
T1 sequence: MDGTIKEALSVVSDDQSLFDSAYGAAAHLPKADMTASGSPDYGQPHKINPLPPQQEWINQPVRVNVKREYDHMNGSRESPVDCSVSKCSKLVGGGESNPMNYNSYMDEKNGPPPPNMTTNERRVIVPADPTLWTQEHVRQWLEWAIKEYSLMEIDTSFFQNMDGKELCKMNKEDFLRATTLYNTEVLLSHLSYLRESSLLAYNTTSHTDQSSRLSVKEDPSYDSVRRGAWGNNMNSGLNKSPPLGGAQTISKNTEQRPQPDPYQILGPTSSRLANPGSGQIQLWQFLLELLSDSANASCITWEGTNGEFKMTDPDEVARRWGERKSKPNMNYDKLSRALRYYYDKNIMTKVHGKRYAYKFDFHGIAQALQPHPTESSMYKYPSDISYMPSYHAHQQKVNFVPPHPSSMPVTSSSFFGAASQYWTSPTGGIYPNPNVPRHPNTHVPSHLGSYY

EHF = molecular target: T2, EHF (UniProt Q9NZC4)
T2 sequence: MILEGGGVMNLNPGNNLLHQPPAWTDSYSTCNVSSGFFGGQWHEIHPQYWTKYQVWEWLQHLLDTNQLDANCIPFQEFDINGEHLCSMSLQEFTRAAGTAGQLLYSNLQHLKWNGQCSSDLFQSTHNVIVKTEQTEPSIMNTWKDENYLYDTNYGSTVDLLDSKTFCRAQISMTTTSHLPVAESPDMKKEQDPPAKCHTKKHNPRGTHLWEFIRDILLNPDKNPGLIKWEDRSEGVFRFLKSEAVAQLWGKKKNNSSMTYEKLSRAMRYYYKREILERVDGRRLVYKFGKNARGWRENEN

SPIB = SPIB (UniProt Q01892)
ETV5 = ETV5 (UniProt P41161)
ELF4 = ELF4 (UniProt Q99607)
ETV2 = molecular target: T3, ETV2 (UniProt O00321)
T3 sequence: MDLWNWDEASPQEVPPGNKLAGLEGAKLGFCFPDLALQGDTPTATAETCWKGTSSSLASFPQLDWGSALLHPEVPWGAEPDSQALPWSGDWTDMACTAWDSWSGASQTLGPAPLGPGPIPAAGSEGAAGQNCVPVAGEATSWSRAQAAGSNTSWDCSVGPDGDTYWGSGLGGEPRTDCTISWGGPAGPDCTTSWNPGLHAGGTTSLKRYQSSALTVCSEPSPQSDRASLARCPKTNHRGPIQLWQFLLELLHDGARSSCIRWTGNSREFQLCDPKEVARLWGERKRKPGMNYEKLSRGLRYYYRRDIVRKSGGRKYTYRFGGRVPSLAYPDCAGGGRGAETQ

ETV3L = molecular target: T4, ETV3L (UniProt Q6ZN32)
T4 sequence: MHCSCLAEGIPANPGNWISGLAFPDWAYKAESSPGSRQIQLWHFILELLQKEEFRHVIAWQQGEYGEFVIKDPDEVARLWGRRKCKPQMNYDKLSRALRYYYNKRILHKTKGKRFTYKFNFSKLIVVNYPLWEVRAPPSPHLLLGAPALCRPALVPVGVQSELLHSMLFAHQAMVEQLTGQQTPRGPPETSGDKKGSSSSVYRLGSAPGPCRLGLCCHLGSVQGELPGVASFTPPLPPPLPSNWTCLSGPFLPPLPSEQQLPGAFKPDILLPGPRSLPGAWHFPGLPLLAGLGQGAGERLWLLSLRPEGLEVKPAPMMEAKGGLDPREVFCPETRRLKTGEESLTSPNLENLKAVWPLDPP

Sequence | binding signal (FLI1) | binding signal (EHF) | binding signal (SPIB) | binding signal (ETV5) | binding signal (ELF4) | binding signal (ETV2) | binding signal (ETV3L)
GCATGG | 0.85 | 0.885 | 0.759 | 0.88 | 0.908 | 0.803 | 0.987
CCAGAC | 0.712 | 0.672 | 0.636 | 0.698 | 0.721 | 0.68 | 0.691
CCGTGT | 0.548 | 0.547 | 0.521 | 0.537 | 0.528 | 0.531 | 0.475
GGCCGA | 0.765 | 0.679 | 0.819 | 0.758 | 0.693 | 0.805 | 0.798
CGAGGA | 0.626 | 0.669 | 0.6 | 0.657 | 0.637 | 0.573 | 0.626
CCGTAG | 0.856 | 0.838 | 0.818 | 0.832 | 0.873 | 0.738 | 0.887
GCCGCG | 0.832 | 0.828 | 0.837 | 0.806 | 0.88 | 0.892 | 0.765
GACAAG | 0.734 | 0.795 | 0.708 | 0.735 | 0.729 | 0.716 | 0.725
AGGCAG | 0.531 | 0.533 | 0.556 | 0.58 | 0.531 | 0.588 | 0.537
GGGTGC | 0.719 | 0.753 | 0.765 | 0.844 | 0.811 | 0.801 | 0.781
GAGCGC | 0.585 | 0.641 | 0.601 | 0.572 | 0.625 | 0.599 | 0.614
CGGGAT | 0.662 | 0.626 | 0.664 | 0.624 | 0.623 | 0.651 | 0.676
AGACAC | 0.765 | 0.735 | 0.758 | 0.752 | 0.754 | 0.755 | 0.804
ATAGGA | 0.772 | 0.847 | 0.875 | 0.869 | 0.756 | 0.821 | 0.838
CAGACA | 0.766 | 0.764 | 0.791 | 0.776 | 0.859 | 0.753 | 0.857
CGCAGC | 0.849 | 0.764 | 0.871 | 0.833 | 0.803 | 0.797 | 0.792
GGCAGT | 0.564 | 0.513 | 0.518 | 0.503 | 0.517 | 0.538 | 0.487
GGCTGT | 0.713 | 0.845 | 0.748 | 0.811 | 0.885 | 0.655 | 0.732
CAGTAG | 0.643 | 0.657 | 0.569 | 0.564 | 0.568 | 0.638 | 0.636
GACCCT | 0.919 | 0.911 | 0.835 | 0.89 | 0.912 | 0.99 | 0.864

Sequence | binding signal (FLI1) | binding signal (EHF) | binding signal (SPIB) | binding signal (ETV5) | binding signal (ELF4) | binding signal (ETV2) | binding signal (ETV3L)
CGGGCA | 0.71 | 0.698 | 0.813 | 0.733 | 0.74 | 0.763 | 0.646
AGAGTT | 0.772 | 0.764 | 0.777 | 0.806 | 0.776 | 0.791 | 0.847
GTGCGT | 0.613 | 0.613 | 0.588 | 0.59 | 0.601 | 0.74 | 0.598
TCGGCG | 0.501 | 0.502 | 0.449 | 0.473 | 0.565 | 0.584 | 0.523
GTGACG | 0.673 | 0.691 | 0.706 | 0.756 | 0.678 | 0.735 | 0.701
GCATAA | 0.84 | 0.848 | 0.844 | 0.901 | 0.853 | 0.812 | 0.817
GCGCGG | 0.732 | 0.815 | 0.8 | 0.753 | 0.828 | 0.761 | 0.817
GCGGTG | 0.547 | 0.565 | 0.566 | 0.525 | 0.577 | 0.573 | 0.527
CAAGAG | 0.794 | 0.82 | 0.645 | 0.732 | 0.777 | 0.766 | 0.763
CACGTC | 0.894 | 0.816 | 0.889 | 0.897 | 0.896 | 0.945 | 0.896
CTAGTC | 0.721 | 0.755 | 0.711 | 0.747 | 0.756 | 0.703 | 0.751
GGACTG | 0.691 | 0.708 | 0.707 | 0.695 | 0.786 | 0.753 | 0.724
GAGTTC | 0.79 | 0.719 | 0.725 | 0.802 | 0.729 | 0.779 | 0.745
CAGTTG | 0.508 | 0.466 | 0.466 | 0.498 | 0.428 | 0.476 | 0.504
CGTGGG | 0.384 | 0.358 | 0.361 | 0.354 | 0.363 | 0.375 | 0.369
GGGTCA | 0.665 | 0.68 | 0.715 | 0.675 | 0.732 | 0.709 | 0.768
GGCGGA | 0.36 | 0.417 | 0.414 | 0.396 | 0.324 | 0.377 | 0.386
GTCGCG | 0.67 | 0.699 | 0.652 | 0.603 | 0.641 | 0.647 | 0.56
GTGCGG | 0.718 | 0.68 | 0.604 | 0.715 | 0.673 | 0.672 | 0.681
AGGGTA | 0.897 | 0.85 | 0.922 | 0.856 | 0.871 | 0.72 | 0.873

No new results follow: an excerpt of the list.
Sequence | binding signal (FLI1) | binding signal (EHF) | binding signal (SPIB) | binding signal (ETV5) | binding signal (ELF4) | binding signal (ETV2) | binding signal (ETV3L)
ATAGGA | 0.772 | 0.847 | 0.875 | 0.869 | 0.756 | 0.821 | 0.838
CAGACA | 0.766 | 0.764 | 0.791 | 0.776 | 0.859 | 0.753 | 0.857
CGCAGC | 0.849 | 0.764 | 0.871 | 0.833 | 0.803 | 0.797 | 0.792
GGCAGT | 0.564 | 0.513 | 0.518 | 0.503 | 0.517 | 0.538 | 0.487
GGCTGT | 0.713 | 0.845 | 0.748 | 0.811 | 0.885 | 0.655 | 0.732
CAGTAG | 0.643 | 0.657 | 0.569 | 0.564 | 0.568 | 0.638 | 0.636
GACCCT | 0.919 | 0.911 | 0.835 | 0.89 | 0.912 | 0.99 | 0.864
CGGGCA | 0.71 | 0.698 | 0.813 | 0.733 | 0.74 | 0.763 | 0.646
AGAGTT | 0.772 | 0.764 | 0.777 | 0.806 | 0.776 | 0.791 | 0.847
GTGCGT | 0.613 | 0.613 | 0.588 | 0.59 | 0.601 | 0.74 | 0.598
TCGGCG | 0.501 | 0.502 | 0.449 | 0.473 | 0.565 | 0.584 | 0.523
GTGACG | 0.673 | 0.691 | 0.706 | 0.756 | 0.678 | 0.735 | 0.701
GCATAA | 0.84 | 0.848 | 0.844 | 0.901 | 0.853 | 0.812 | 0.817
GCGCGG | 0.732 | 0.815 | 0.8 | 0.753 | 0.828 | 0.761 | 0.817

Additional records.

Sequence | binding signal (FLI1) | binding signal (EHF) | binding signal (SPIB) | binding signal (ETV5) | binding signal (ELF4) | binding signal (ETV2) | binding signal (ETV3L)
TGAGCA | 0.8 | 0.903 | 0.864 | 0.778 | 0.853 | 0.932 | 0.94
GCCGTA | 0.839 | 0.78 | 0.774 | 0.715 | 0.814 | 0.82 | 0.762
GCCGTT | 0.805 | 0.867 | 0.795 | 0.738 | 0.846 | 0.813 | 0.746
GTCCGA | 0.84 | 0.847 | 0.904 | 0.826 | 0.84 | 0.789 | 0.851
GATAGG | 0.822 | 0.81 | 0.847 | 0.847 | 0.798 | 0.945 | 0.837
TCGGGT | 0.594 | 0.574 | 0.529 | 0.582 | 0.584 | 0.544 | 0.599
ACAGTA | 0.93 | 0.897 | 0.985 | 0.859 | 0.931 | 0.919 | 0.882
CACGGT | 0.939 | 0.956 | 0.958 | 0.893 | 0.931 | 0.819 | 0.919
CCAGTC | 0.261 | 0.263 | 0.277 | 0.266 | 0.282 | 0.281 | 0.27
GTAGAC | 0.799 | 0.741 | 0.779 | 0.767 | 0.76 | 0.781 | 0.783
CGTTAG | 0.77 | 0.79 | 0.828 | 0.826 | 0.807 | 0.964 | 0.808
GGGACC | 0.641 | 0.614 | 0.693 | 0.643 | 0.689 | 0.647 | 0.647
TGGGGA | 0.888 | 0.861 | 0.765 | 0.805 | 0.762 | 0.757 | 0.854
GGTTGG | 0.621 | 0.782 | 0.717 | 0.663 | 0.753 | 0.644 | 0.741
CGGGAG | 0.197 | 0.203 | 0.204 | 0.203 | 0.183 | 0.201 | 0.213
TCAGGT | 0.9 | 0.804 | 0.91 | 0.819 | 0.878 | 0.917 | 0.829
AAGGTG | 0.95 | 0.907 | 0.899 | 0.898 | 0.905 | 0.837 | 0.888
GGCCCG | 0.758 | 0.725 | 0.684 | 0.709 | 0.831 | 0.754 | 0.67
CACGTG | 0.619 | 0.636 | 0.691 | 0.617 | 0.592 | 0.449 | 0.692
GGTGCA | 0.848 | 0.858 | 0.976 | 0.903 | 0.94 | 0.831 | 0.861
